In article PMC8124814:
No constants are given. Whether binding was seen depends on the method and setting. Some results given as binding are weak or reduced against the parent protein; the word gives no strength.

Target: X-ray repair cross-complementing protein 1 (XRCC1), human, unlabelled (human) (UniProt P18887)
Assay: cross-linking; glutaraldehyde; equimolar mixtures of the protein pairs; detailed in Supplementary Results; both purified

With “X-ray repair cross-complementing protein 1 (XRCC1), human, unlabelled (from UniProt P18887 1-633) (other; other documents disagree on this pair)” the binding was “binds”.
